From ChEMBL document CHEMBL3988442, “University of Dundee, Small-Polar-MMV Screening Library” (2021).

The chains behind the UniProt entries cited, without tags or fusion partners.
UniProt I6X8D2, whole entry: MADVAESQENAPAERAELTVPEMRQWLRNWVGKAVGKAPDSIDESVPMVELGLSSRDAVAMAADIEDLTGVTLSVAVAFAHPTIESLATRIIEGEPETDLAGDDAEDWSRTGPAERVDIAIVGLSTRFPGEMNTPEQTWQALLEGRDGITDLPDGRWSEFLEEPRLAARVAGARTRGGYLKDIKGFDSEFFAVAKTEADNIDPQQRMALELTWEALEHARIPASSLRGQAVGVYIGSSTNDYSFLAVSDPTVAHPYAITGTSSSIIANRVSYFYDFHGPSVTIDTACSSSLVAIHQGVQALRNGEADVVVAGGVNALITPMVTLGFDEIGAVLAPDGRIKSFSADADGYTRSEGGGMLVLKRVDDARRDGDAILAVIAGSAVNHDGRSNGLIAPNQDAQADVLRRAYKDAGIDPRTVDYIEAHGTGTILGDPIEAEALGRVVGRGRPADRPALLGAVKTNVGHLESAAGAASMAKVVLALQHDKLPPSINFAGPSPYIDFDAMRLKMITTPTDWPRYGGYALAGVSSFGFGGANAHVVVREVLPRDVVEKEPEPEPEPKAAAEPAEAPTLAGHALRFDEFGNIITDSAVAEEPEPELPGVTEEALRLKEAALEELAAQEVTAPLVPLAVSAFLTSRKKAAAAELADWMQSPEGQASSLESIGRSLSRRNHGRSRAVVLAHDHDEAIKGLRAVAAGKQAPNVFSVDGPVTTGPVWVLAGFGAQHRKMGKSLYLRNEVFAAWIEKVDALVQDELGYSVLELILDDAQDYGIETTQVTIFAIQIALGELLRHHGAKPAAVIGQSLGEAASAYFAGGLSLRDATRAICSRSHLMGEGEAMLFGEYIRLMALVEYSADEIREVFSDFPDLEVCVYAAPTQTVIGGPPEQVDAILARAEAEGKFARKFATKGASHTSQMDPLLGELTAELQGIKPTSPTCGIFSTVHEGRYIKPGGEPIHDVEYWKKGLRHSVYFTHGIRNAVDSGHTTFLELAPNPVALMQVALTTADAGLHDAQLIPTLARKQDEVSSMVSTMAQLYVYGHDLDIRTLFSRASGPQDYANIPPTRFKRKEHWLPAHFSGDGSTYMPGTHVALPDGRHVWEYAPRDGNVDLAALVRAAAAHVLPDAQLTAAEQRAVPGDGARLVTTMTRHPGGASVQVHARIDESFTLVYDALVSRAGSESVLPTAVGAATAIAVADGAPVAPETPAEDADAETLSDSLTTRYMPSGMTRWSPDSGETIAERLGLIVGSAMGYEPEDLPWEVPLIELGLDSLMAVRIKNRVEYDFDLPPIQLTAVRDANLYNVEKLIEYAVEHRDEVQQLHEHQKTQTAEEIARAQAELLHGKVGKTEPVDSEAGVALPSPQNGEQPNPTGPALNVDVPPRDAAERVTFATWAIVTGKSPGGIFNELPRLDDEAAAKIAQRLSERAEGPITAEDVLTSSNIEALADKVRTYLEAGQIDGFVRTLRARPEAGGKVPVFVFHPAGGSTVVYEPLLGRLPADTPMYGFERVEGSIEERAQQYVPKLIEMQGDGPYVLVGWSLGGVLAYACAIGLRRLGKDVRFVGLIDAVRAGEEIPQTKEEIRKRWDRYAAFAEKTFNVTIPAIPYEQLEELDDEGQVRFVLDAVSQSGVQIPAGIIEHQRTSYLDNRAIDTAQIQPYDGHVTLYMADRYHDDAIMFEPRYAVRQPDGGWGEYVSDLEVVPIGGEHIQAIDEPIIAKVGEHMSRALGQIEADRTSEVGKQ
UniProt P9WNZ1, whole entry: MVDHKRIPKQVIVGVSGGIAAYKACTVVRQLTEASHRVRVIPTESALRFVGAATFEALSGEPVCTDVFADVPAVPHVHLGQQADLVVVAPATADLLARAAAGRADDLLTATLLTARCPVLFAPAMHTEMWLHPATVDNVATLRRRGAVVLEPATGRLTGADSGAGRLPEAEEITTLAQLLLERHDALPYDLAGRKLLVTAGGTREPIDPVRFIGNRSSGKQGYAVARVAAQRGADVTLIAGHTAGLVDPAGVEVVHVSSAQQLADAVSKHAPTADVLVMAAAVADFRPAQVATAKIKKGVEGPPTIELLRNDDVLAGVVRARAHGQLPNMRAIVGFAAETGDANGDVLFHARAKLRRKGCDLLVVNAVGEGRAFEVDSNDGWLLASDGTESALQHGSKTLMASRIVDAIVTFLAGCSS
UniProt P9WFT3, whole entry: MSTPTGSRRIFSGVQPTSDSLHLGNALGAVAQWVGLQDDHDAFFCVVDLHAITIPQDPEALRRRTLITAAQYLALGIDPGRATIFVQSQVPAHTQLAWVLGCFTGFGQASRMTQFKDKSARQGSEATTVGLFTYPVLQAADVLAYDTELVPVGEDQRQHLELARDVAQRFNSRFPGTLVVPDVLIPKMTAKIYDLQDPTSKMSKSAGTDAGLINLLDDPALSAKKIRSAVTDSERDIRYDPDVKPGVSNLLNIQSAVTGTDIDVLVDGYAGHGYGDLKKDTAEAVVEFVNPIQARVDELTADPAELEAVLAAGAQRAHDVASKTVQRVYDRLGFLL

Pks13 thioesterase: 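Enzyme assay of the thioesterase domain of polyketide synthase 13; the read-out is not stated. Target: Polyketide synthase Pks13, Mycobacterium tuberculosis (UniProt I6X8D2). Compounds at 30 µM. The record gives no direction; the compounds picked for IC50 retests had high values, so higher reads as stronger inhibition. Size under these conditions: about 67,000 compounds, about 300 of them at 50% or above in at least one test.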
CoaBC: 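Coenzyme A biosynthesis protein CoaBC, Mycobacterium tuberculosis (UniProt P9WNZ1). Enzyme assay of CoaBC with a phosphate dye (Biomol Green) read at 650 nm. Compounds at 30 µM. Higher reads as stronger inhibition, judged from the few compounds that gave an IC50. Most strong results did not repeat in a second test. Size under these conditions: about 67,000 compounds, about 40 of them at 50% or above in at least one test.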
Leishmania in macrophages: 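Cell assay of Leishmania donovani living inside macrophages; the read-out is not stated. Compounds at 30 µM. Higher reads as stronger inhibition (inferred: compounds with an IC50 in retests scored well above the rest). About 69,000 compounds were tested under these conditions; 1.5% (about 1,000) showed 50% or more at least once.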
MtTrpRS: 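Tryptophan-tRNA ligase, Mycobacterium tuberculosis (UniProt P9WFT3). Enzyme assay of tryptophanyl-tRNA synthetase; the read-out is not stated. Compounds at 10 µM. Higher most likely means stronger inhibition; the record gives no direction and few retests gave an IC50. Of about 65,000 compounds tested this way, about 64 (0.098%) reached 50% or more in at least one test.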

Each number is a percent effect as filed.
How 0% and 100% were set is not recorded. Most values in the screen are low, and negative values occur.
This is an unselected part of the compounds tested.
A dash means the value is not listed here; it may have been measured.

Compound	Pks13 thioesterase	CoaBC	Leishmania in macrophages	MtTrpRS
O=C(Nc1cccnc1-n1cc(Cl)cn1)C1CCCC1	-20.69%	0.7576%	6.091%	2.871%
O=C(Cc1ccccc1)N1CCOC(c2nc(-c3ncccn3)no2)C1 (stereo not shown)	-	1.471%	2.282%	-
COc1cc2cc(C(=O)O)n(C)c2c(OC)c1OC	-11.16%	0.4038%	19.89%	-2.01%
CCc1nccn1-c1nccnc1C1CCCN(C(=O)COC)C1 (stereo not shown)	5.172%	3.09%	11.67%	-5.49%
COCCC(=O)N1CCCC2(CCC(=O)N(CCc3c[nH]cn3)C2)C1 (stereo not shown)	-51.05%	0.8157%	11.1%	-1.044%
COc1cccc(NC(=O)C(C)Cn2cc(Cl)cn2)c1 (stereo not shown)	-13.87%	-4.377%	-9.054%	5.417%
CC1CCCN(C(=O)c2csc(S(N)(=O)=O)c2)CC1 (stereo not shown)	-12.74%	-0.4405%	0.9179%	-2.515%
N#CC1(NC(=O)Cc2cc(Cl)c3c(c2)OCCO3)CCC1	-0.7429%	1.24%	1.685%	0.6517%
CCN(CC)C(CNC(=O)c1ccc(-n2cncn2)cc1)c1ccsc1 (stereo not shown)	-1.216%	4.573%	31.68%	-1.162%
Cc1n[nH]c(C)c1NC(=O)CN1CCCC1c1c(C)nn(C)c1C (stereo not shown)	6.646%	4.773%	3.714%	-0.9887%
COc1ccc(CN2CCC(O)(CN3CCCCC3)C2)c(C)c1 (stereo not shown)	-4.924%	0.369%	67.74%	-5.039%
CN1C[C@H](O)[C@]2(CCN(C(=O)NCc3ccccc3)C2)S1(=O)=O	5.888%	4.049%	15.32%	-
Cc1ccccc1OCC(=O)NCC(c1ccc(N(C)C)cc1)N(C)C (stereo not shown)	-44.02%	-4.084%	-4.653%	6.616%
CCn1ccnc1CN1CCN(CC(O)c2ccco2)CC1 (stereo not shown)	-19.08%	3.069%	22.4%	4.576%
Cc1cc(=O)n(CCNS(=O)(=O)c2cccc(C(F)(F)F)c2)cn1	-11.33%	0.2421%	-24.36%	3.226%
c1cnnc(N2CCCC(NCc3ccc(-n4cncn4)cc3)C2)c1 (stereo not shown)	-19.76%	-3.672%	18%	1.383%
Cc1nc(CCNC(=O)C2CCN(C(C)C)CC2)sc1Cl	-30.25%	-2.871%	39.84%	2.971%
CC1CCN(Cc2cc(=O)[nH]c(=O)[nH]2)CC1	20.58%	-1.499%	6.257%	-0.2244%
[H][C@]12CC[C@]([H])(CN(C(=O)N(C)C)C1)N(C(=O)c1c(Cl)cccc1Cl)C2	-	-	25.52%	-
Cc1ccc(NC(=O)CNc2cccc(C(N)=O)c2C)c(C)c1	-4.345%	-0.5102%	-10.61%	-4.328%
CN1CCC2(Cc3ccccc3CN(C(=O)CCN)C2)C1 (stereo not shown)	-37.22%	1.579%	-9.048%	14.95%
Fc1ccccc1CN1CCCN(c2ncnc3[nH]ccc23)CC1	-44.64%	5.364%	-34.51%	-0.9889%
CCC(Nc1nc(CCN)nc2ccccc12)c1cc(C)ccn1 (stereo not shown)	-1.893%	4.668%	19.32%	5.302%
Cc1ccc(C2CCCN2Cc2nc(-c3ccco3)no2)cc1 (stereo not shown)	-21.51%	2.558%	0.8124%	-4.438%
Cc1n[nH]/c(=N\C(=O)c2c3c(nc4onc(C)c24)CCC3)s1	-13.16%	-0.6075%	-26.93%	5.305%
COC1CCCN(C2CCN(c3cccc(-c4csc(C)n4)c3)CC2)C1 (stereo not shown)	-3.767%	3.606%	8.217%	-0.6849%
O=C(O)C(F)(F)F.O=C(O)C(F)(F)F.[H][C@@]12OCCN(Cc3ccoc3)[C@@]1([H])CCC2COCc1cccnc1 (stereo partly shown)	-	-	15.7%	-
CCCN(Cc1cccnc1)C1CC(C)(C)NC(C)(C)C1	7.684%	-1.214%	-	-
[H][C@@]12CCN(C)[C@]1([H])CN(C(=O)c1csc(NC)n1)C2	-	-	-3.161%	-
CC(C)NC(=O)C1CCC2(CCN(c3ncccn3)CC2)CO1 (stereo not shown)	-22.57%	-	5.13%	-2.035%
O=C(O)C(F)(F)F.[H][C@]12CCCC(N(C)Cc3cccs3)[C@@]1([H])CN(C(=O)c1cnccn1)C2 (stereo partly shown)	-	-	8.836%	-
Fc1ccccc1Cc1noc(CN2CCC(N3CCSCC3)CC2)n1	-12.33%	6.818%	19.44%	-1.784%
Cc1noc([C@@H]2C[C@H]3OCC[C@H]3N(CC3CCCC3)C2)n1	-21.55%	6.345%	-	-1.728%
O=C(c1ccccn1)N1CCCC(c2nccn2Cc2ccncc2)C1 (stereo not shown)	-5.221%	-5.33%	23.7%	-0.2138%
Cc1ccc(C(NC(=O)CN2CCc3c(ncn3C)C2)C2CC2)cc1 (stereo not shown)	8.092%	9.158%	3.572%	-1.591%
O=C(O)C(F)(F)F.[H][C@@]12CN(Cc3ccc(C)o3)C[C@H](C(=O)N3CCCCO3)[C@]1([H])CCO2	-	-	-0.8328%	-
c1ccc(CN2CCc3ncnc(-c4ccncc4)c3CC2)nc1	-14.45%	-1.523%	-	12.76%
O=C(c1ccc(-n2cnnc2)cc1Cl)N1CCCC2(CCNC2)C1 (stereo not shown)	-0.06775%	0.3686%	10.7%	0.7389%

Repeated from the top, 3 entries:

{"compound": "O=C(Nc1cccnc1-n1cc(Cl)cn1)C1CCCC1", "Pks13 thioesterase": -20.69, "CoaBC": 0.7576, "Leishmania in macrophages": 6.091, "MtTrpRS": 2.871}
{"compound": "O=C(Cc1ccccc1)N1CCOC(c2nc(-c3ncccn3)no2)C1", "stereo": "stereo not shown", "CoaBC": 1.471, "Leishmania in macrophages": 2.282}
{"compound": "COc1cc2cc(C(=O)O)n(C)c2c(OC)c1OC", "Pks13 thioesterase": -11.16, "CoaBC": 0.4038, "Leishmania in macrophages": 19.89, "MtTrpRS": -2.01}